Data reported in US6673843B2 (Emory University, priority 1999, dated 2004).

Test system: bFGF-induced corneal neovascularization
Assay: Corneal neovascularization, bFGF pellet in mouse cornea
Assay type: in vivo, C57BL6 male mice
Conditions: for ANTI-ANGIOGENIC EFFECT Sector Size Rank: rank 1-5, higher = greater reduction of sector size; for ANTI-ANGIOGENIC EFFECT Vessel Length Rank: rank 1-5, higher = greater reduction of vessel length
Method: C57BL6 male mice (5-6 weeks old) were anesthetized with methoxyflurane prior to implantation of pellets and with 0.5% proparacaine. A central, intrastromal linear keratotomy was performed with a surgical blade, and a lamellar micropocket was prepared according to the method of Kenyon, et al. (1996). The pellet was advanced to the end of the pocket. Erythromycin ointment was placed on the operated eye to prevent infection. Eyes were examined by slit lamp on days 3-6 after implantation under general anesthesia. Corneal angiogenesis was assayed through two measurements.
Vessel length is the length of the vessel from the corneal limbus as it grows toward the pellet containing bFGF.
Sector size is a measurement of neovascularized area of the cornea. The cornea is viewed as a circle that can be divided into twelve sectors of 30 degrees span each, analogous to the division of a clock face into twelve hours. Thus, neovascularization of a sector corresponding to one fourth of the cornea would be recorded as a sector size measurement of three. This system of measurement, recording sector sizes as “clock hours”, was established by Kenyon et al., Invest. Ophthalmol. 37:1625-1632 (1996).
Pellets were prepared according to a modification of the method of Kenyon, et al. Invest. Opthalmol. Vis. Sci. 37:1625-1632 (1996). […] Once the mixture was dry, the mesh was manually dissociated to yield 225 pellets. […] The approximate pore size was 0.4×0.4 mm. Both sides of the mesh were covered with a thin layer of hydron.
Neovascularization was assessed by slit lamp at 5 days after implantation, and the corneas were photographed.

Row | SMILES | ANTI-ANGIOGENIC EFFECT Sector Size Rank | ANTI-ANGIOGENIC EFFECT Vessel Length Rank
1 | COc1cc(/C=C/C(=O)CC(=O)/C=C/c2ccc(O)c(OC)c2)ccc1O [Curcumin] | 4 | 4
2 | O=C1C(c2ccccc2)=C(c2ccccc2)C(c2ccccc2)=C1c1ccccc1 [TPCPD, tetraphenylcyclopentadienone, reference compound] | 1 | 1
